Results as given in article PMC5386292.
No constants are given. Whether binding was seen depends on the method and setting. Binding seen in cells or lysates may run through a third protein. Some binding calls cover weakened binding; strength is not graded here.

Chains of the proteins cited; added tags and fusions are not shown. Lines headed by an entry give the natural chain unless they say otherwise; changes in a name come on top.
UniProt Q99814: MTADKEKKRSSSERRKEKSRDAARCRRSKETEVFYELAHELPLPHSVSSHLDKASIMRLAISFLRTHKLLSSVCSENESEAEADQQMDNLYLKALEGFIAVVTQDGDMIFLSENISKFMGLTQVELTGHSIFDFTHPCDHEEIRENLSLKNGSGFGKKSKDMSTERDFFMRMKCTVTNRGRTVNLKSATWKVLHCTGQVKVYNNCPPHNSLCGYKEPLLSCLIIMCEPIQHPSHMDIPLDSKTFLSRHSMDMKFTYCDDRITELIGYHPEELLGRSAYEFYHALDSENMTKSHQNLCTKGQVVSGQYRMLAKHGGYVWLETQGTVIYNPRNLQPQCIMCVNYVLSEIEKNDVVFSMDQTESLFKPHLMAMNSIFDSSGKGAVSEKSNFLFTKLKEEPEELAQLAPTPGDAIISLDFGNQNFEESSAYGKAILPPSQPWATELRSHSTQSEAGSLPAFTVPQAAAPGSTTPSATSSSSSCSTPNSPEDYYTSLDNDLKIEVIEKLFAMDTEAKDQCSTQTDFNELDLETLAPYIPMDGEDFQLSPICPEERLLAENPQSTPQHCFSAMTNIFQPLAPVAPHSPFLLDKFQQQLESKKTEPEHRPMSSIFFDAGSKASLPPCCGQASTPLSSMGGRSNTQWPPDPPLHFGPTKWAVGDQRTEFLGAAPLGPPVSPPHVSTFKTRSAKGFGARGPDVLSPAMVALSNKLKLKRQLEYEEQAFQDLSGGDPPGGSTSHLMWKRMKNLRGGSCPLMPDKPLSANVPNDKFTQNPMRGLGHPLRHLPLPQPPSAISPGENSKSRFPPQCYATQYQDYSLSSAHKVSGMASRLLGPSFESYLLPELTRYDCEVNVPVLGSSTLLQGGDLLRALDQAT
UniProt P10244: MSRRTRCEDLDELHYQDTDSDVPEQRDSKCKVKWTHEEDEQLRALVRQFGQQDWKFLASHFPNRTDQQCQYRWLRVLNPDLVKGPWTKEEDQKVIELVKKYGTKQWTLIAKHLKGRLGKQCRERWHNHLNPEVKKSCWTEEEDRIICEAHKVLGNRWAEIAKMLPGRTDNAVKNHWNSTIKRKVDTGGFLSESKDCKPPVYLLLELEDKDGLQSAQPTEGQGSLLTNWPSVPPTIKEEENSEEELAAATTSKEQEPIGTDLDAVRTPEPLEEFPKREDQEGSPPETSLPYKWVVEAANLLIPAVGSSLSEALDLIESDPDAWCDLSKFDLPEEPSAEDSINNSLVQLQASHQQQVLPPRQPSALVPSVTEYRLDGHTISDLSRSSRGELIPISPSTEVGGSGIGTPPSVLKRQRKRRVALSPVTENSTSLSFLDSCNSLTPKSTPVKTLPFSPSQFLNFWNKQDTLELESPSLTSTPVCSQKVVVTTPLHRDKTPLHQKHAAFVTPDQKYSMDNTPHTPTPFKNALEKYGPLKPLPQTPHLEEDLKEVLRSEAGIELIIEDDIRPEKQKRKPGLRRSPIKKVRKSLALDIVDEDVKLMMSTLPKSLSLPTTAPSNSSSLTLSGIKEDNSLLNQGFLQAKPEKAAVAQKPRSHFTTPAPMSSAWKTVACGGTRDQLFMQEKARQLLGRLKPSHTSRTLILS

Tests used:
[1] = molecular target: Hypoxia-inducible factor-2α (endogenous) (human (endogenous in 786-O)) (UniProt Q99814); assay: co-IP; endogenous proteins; nuclear fraction of 786-O cells, IP with anti-HIF-2α, immunoblot anti-B-Myb
[2] = molecular target: Hypoxia-inducible factor-2α (endogenous) (human (endogenous in 786-O)) (UniProt Q99814); assay: co-IP; endogenous proteins; 786-O cell lysates immunoprecipitated with an anti-HIF-2α antibody, immunoblotted with anti-B-Myb or anti-HIF-2α
[3] = molecular target: 3×HA-B-Myb, full length (human) (UniProt P10244); assay: co-IP; 3×FLAG-HIF-2α and 3×HA-B-Myb (wild type or deletion mutants) coexpressed in HEK293T cells; lysates immunoprecipitated with anti-HA, immunoblotted with anti-FLAG or anti-HA

| Substance | binding [1] | binding [2] | binding [3] |
| --- | --- | --- | --- |
| Myb-related protein 2 (endogenous) (from UniProt P10244 1-700) | binds | binds |  |
| 3×FLAG-HIF-2α, full length (from UniProt Q99814 1-870) |  |  | binds |
| 3×FLAG-HIF-2α(436–870) (from UniProt Q99814 436-870) (domain or fragment) |  |  | binds |
